# Some entries share one result that the patent states for a list of compounds.
# Experiment: Differential Scanning Calorimetry, thermal stability
# Format: physicochemical
# Details: DSC, heated from 30 to 350° C. at 10° C. per minute
# Description: Differential Scanning Calorimetry Measurement
# Differential Scanning Calorimeter (DSC, TA Instruments 2920 from TA Instruments of New Castle, Del.) was used to measure phase transition and melting point of the small molecule semiconductors. Examples 1 to 8 were heated from 30 to 350° C. at a heating rate of 10° C. per minute. […] No decomposition was observed up to the 350° C. of the testing range. […] Example 9 was heated from 30 to 360° C. at a heating rate of 10° C. per minute. […] Example 9 started to decompose around 357° C.
row,Structure (SMILES),Decomposition temperature (no decomposition observed up to) [°C]
1,"CC(C)[Si](C#Cc1c2ccc(-c3cccs3)cc2c(C#C[Si](C(C)C)(C(C)C)C(C)C)c2ccc(-c3cccs3)cc12)(C(C)C)C(C)C [Example 1, 2,6-Bis(thiophene-2-yl)-9,10-bis-[(triisopropylsilyl)ethynyl]anthracene]",> 350
2,"CCCCCCc1ccc(-c2ccc3c(C#C[Si](C(C)C)(C(C)C)C(C)C)c4cc(-c5ccc(CCCCCC)s5)ccc4c(C#C[Si](C(C)C)(C(C)C)C(C)C)c3c2)s1 [Example 6, 2,6-Bis(5-hexyl-thiophene-2-yl)-9,10-bis-[(triisopropylsilyl)ethynyl]anthracene]",> 350
3,"Cc1ccsc1-c1ccc2c(C#C[Si](C(C)C)(C(C)C)C(C)C)c3cc(-c4sccc4C)ccc3c(C#C[Si](C(C)C)(C(C)C)C(C)C)c2c1 [Example 3, 2,6-Bis(3-methyl-thiophene-2-yl)-9,10-bis-[(triisopropylsilyl)ethynyl]anthracene]",> 350
4,"CCc1ccc(-c2ccc3c(C#C[Si](C(C)C)(C(C)C)C(C)C)c4cc(-c5ccc(CC)s5)ccc4c(C#C[Si](C(C)C)(C(C)C)C(C)C)c3c2)s1 [Example 4, 2,6-Bis(5-ethyl-thiophene-2-yl)-9,10-bis-[(triisopropylsilyl)ethynyl]anthracene]",> 350
5,"CCCc1ccc(-c2ccc3c(C#C[Si](C(C)C)(C(C)C)C(C)C)c4cc(-c5ccc(CCC)s5)ccc4c(C#C[Si](C(C)C)(C(C)C)C(C)C)c3c2)s1 [Example 5, 2,6-Bis(5-propyl-thiophene-2-yl)-9,10-bis-[(triisopropylsilyl)ethynyl]anthracene]",> 350
6,"CC(C)[Si](C#Cc1c2ccc(-c3ccc(-c4cccs4)s3)cc2c(C#C[Si](C(C)C)(C(C)C)C(C)C)c2ccc(-c3ccc(-c4cccs4)s3)cc12)(C(C)C)C(C)C [Example 8, 2,6-Bis(2,2′-bithiophene-5-yl)-9,10-bis-[(triisopropylsilyl)ethynyl]anthracene]",> 350
7,"CCCCCCc1ccsc1-c1ccc2c(C#C[Si](C(C)C)(C(C)C)C(C)C)c3cc(-c4sccc4CCCCCC)ccc3c(C#C[Si](C(C)C)(C(C)C)C(C)C)c2c1 [Example 7, 2,6-Bis(3-hexyl-thiophene-2-yl)-9,10-bis-[(triisopropylsilyl)ethynyl]anthracene]",> 350

# From patent publication US8178873B2, “Solution processable organic semiconductors” (3M Innovative Properties Company, priority 2007, dated 2012)
